# Reference: article PMC11005689
# Sequences of proteins named here, by UniProt entry; tags and fusion partners are left off.
# UniProt Q7L5N1: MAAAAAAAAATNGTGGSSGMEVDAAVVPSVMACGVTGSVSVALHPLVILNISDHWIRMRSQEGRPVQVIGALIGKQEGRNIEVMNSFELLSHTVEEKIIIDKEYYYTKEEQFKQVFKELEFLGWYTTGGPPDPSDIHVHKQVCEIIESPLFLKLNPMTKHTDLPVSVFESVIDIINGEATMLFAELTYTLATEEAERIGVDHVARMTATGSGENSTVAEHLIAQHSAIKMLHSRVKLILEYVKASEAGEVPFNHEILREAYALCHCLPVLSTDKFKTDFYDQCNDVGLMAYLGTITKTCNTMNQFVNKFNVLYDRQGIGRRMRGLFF
# UniProt O43791: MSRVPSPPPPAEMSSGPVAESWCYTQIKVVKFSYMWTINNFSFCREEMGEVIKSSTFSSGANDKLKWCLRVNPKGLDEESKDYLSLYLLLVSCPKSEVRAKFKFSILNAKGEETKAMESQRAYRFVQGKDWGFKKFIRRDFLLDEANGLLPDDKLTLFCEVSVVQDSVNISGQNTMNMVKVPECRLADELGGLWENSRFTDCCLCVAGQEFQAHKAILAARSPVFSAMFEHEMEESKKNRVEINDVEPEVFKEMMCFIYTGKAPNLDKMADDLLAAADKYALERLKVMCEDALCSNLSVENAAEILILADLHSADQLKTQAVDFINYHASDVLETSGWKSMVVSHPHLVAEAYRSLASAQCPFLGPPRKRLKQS
# These are yes or no findings as the source states them, for the method shown. Binding seen in cells or lysates may run through a third protein. Some binding calls cover weakened binding; strength is not graded here.
# Experiments:
# [1] = target: CSN6 (293T cells, Figure 4B) (UniProt Q7L5N1); assay: co-IP; immunoprecipitates from 293T cells with MG132 treatment for 6 h, immunoblot (Figure 4B)
# [2] = substrate: SPOP (transfected construct) (UniProt O43791); assay: co-IP; 293T cells transfected with indicated constructs and treated with MG132 for 6 h; cell lysate (Figure 5C left)
# [3] = substrate: SPOP (transfected construct) (UniProt O43791); assay: co-IP; IP assay of HMGCS1‐WT or HMGCS1‐ΔSBC with SPOP (Figure 5G); cells not stated in the legend
# [4] = substrate: SPOP (in vitro translated) (UniProt O43791); assay: co-IP; in vitro: constructs transcribed and translated with the TnT kit, co-IP with indicated antibodies (Figure 5C right)
binder,measurement,setting,value
"HMGCS1 (293T cells, Figure 4B) (protein, UniProt Q01581 1-520) MPGSLPLNAEACWPKDVGIVALEIYFPSQYVDQAELEKYDGVDAGKYTIGLGQAKMGFCTDREDINSLCMTVVQNLMERNNLSYDCIGRLEVGTETIIDKSKSVKTNLMQLFEESGNTDIEGIDTTNACYGGTAAVFNAVNWIESSSWDGRYALVVAGDIAVYATGNARPTGGVGAVALLIGPNAPLIFERGLRGTHMQHAYDFYKPDMLSEYPIVDGKLSIQCYLSALDRCYSVYCKKIHAQWQKEGNDKDFTLNDFGFMIFHSPYCKLVQKSLARMLLNDFLNDQNRDKNSIYSGLEAFGDVKLEDTYFDRDVEKAFMKASSELFSQKTKASLLVSNQNGNMYTSSVYGSLASVLAQYSPQQLAGKRIGVFSYGSGLAATLYSLKVTQDATPGSALDKITASLCDLKSRLDSRTGVAPDVFAENMKLREDTHHLVNYIPQGSIDSLFEGTWYLVRVDEKHRRTYARRPTPNDDTLDEGVGLVHSNIATEHIPSPAKKVPRLPATAAEPEAAVISNGEH",binding,[1],binds
"HMGCS1‐WT (transfected construct) (protein, UniProt Q01581 1-520) MPGSLPLNAEACWPKDVGIVALEIYFPSQYVDQAELEKYDGVDAGKYTIGLGQAKMGFCTDREDINSLCMTVVQNLMERNNLSYDCIGRLEVGTETIIDKSKSVKTNLMQLFEESGNTDIEGIDTTNACYGGTAAVFNAVNWIESSSWDGRYALVVAGDIAVYATGNARPTGGVGAVALLIGPNAPLIFERGLRGTHMQHAYDFYKPDMLSEYPIVDGKLSIQCYLSALDRCYSVYCKKIHAQWQKEGNDKDFTLNDFGFMIFHSPYCKLVQKSLARMLLNDFLNDQNRDKNSIYSGLEAFGDVKLEDTYFDRDVEKAFMKASSELFSQKTKASLLVSNQNGNMYTSSVYGSLASVLAQYSPQQLAGKRIGVFSYGSGLAATLYSLKVTQDATPGSALDKITASLCDLKSRLDSRTGVAPDVFAENMKLREDTHHLVNYIPQGSIDSLFEGTWYLVRVDEKHRRTYARRPTPNDDTLDEGVGLVHSNIATEHIPSPAKKVPRLPATAAEPEAAVISNGEH",binding,[2],binds
same,binding,[3],binds
"HMGCS1 (in vitro translated) (protein, UniProt Q01581 1-520) MPGSLPLNAEACWPKDVGIVALEIYFPSQYVDQAELEKYDGVDAGKYTIGLGQAKMGFCTDREDINSLCMTVVQNLMERNNLSYDCIGRLEVGTETIIDKSKSVKTNLMQLFEESGNTDIEGIDTTNACYGGTAAVFNAVNWIESSSWDGRYALVVAGDIAVYATGNARPTGGVGAVALLIGPNAPLIFERGLRGTHMQHAYDFYKPDMLSEYPIVDGKLSIQCYLSALDRCYSVYCKKIHAQWQKEGNDKDFTLNDFGFMIFHSPYCKLVQKSLARMLLNDFLNDQNRDKNSIYSGLEAFGDVKLEDTYFDRDVEKAFMKASSELFSQKTKASLLVSNQNGNMYTSSVYGSLASVLAQYSPQQLAGKRIGVFSYGSGLAATLYSLKVTQDATPGSALDKITASLCDLKSRLDSRTGVAPDVFAENMKLREDTHHLVNYIPQGSIDSLFEGTWYLVRVDEKHRRTYARRPTPNDDTLDEGVGLVHSNIATEHIPSPAKKVPRLPATAAEPEAAVISNGEH",binding,[4],binds
